Patent publication US20220202799A1, “PHARMACEUTICAL FORMULATIONS CONTAINING P2Y14 ANTAGONISTS” (priority 2019, published 2022)
Several values for one entry are separate records, joined by “and”; a condition that tells them apart may be missing. Equal entries are not always repeated. The source gives many values for each of these; only a part stands here.

How the values were obtained:
[1] = Plasma concentrations during 24-hour continuous intravenous infusion; assay type: in vivo, Sprague-Dawley rats
Procedure: The safety and pharmacokinetics of PPTN (KB-1801) in rats receiving continuous intravenous injections of SBECD-containing solutions were analyzed. Three cohorts of six male and six female rats each were given continuous intravenous infusion of PPTN (KB-1801) at 10 mg/kg/day, 30 mg/kg/day or 100 mg/kg/day in a dosing solution containing PPTN at 0.25 mg/mL, 0.75 mg/mL or 2.5 mg/mL and SBECD at about 3.8%. Dosing volume was 40 mIkg/day. [table]

[2] = Urine concentrations, 72-hour continuous intravenous infusion; assay type: in vivo, Sprague-Dawley rats; details: individual animals
Procedure: The safety and pharmacokinetics of PPTN (KB-1801) in rats receiving continuous intravenous injections of SBECD-containing solutions were analyzed. Three cohorts of six male and six female rats each were given continuous intravenous infusion of PPTN (KB-1801) at 10 mg/kg/day, 30 mg/kg/day or 100 mg/kg/day in a dosing solution containing PPTN at 0.25 mg/mL, 0.75 mg/mL or 2.5 mg/mL and SBECD at about 3.8%. Dosing volume was 40 mIkg/day.

[3] = 72-hour IV infusion 10 mg/kg/day, female rats, interval 0-4 h
[4] = 72-hour IV infusion 10 mg/kg/day, female rats, interval 4-9 h
[5] = 72-hour IV infusion 10 mg/kg/day, female rats, interval 20-24 h
[6] = 72-hour IV infusion 10 mg/kg/day, female rats, interval 44-48 h
[7] = 72-hour IV infusion 10 mg/kg/day, female rats, interval 68-72 h
[8] = 72-hour IV infusion 10 mg/kg/day, female rats, interval 92-96 h
[9] = 72-hour IV infusion 10 mg/kg/day, male rats, interval 4-9 h
[10] = 72-hour IV infusion 10 mg/kg/day, male rats, interval 20-24 h
[11] = 72-hour IV infusion 10 mg/kg/day, male rats, interval 44-48 h
[12] = 72-hour IV infusion 10 mg/kg/day, male rats, interval 68-72 h
[13] = 72-hour IV infusion 30 mg/kg/day, female rats, interval 0-4 h
[14] = 72-hour IV infusion 30 mg/kg/day, female rats, interval 4-9 h

O=C(O)c1cc(-c2ccc(C3CCNCC3)cc2)c2ccc(-c3ccc(C(F)(F)F)cc3)cc2c1 [KB-1801, 4-[4-(piperidin-4-yl)phenyl]-7-[4-(trifluoromethyl)phenyl]-2-naphthoic acid]
Plasma concentration, individual animal ([1]; female Sprague-Dawley rats, 24-hour intravenous infusion at 10 mg/kg, time 1 h, 10 mg/kg): 361.0 ng/mL and 171.3 ng/mL and 115.1 ng/mL
Plasma concentration, individual animal ([1]; female Sprague-Dawley rats, 24-hour intravenous infusion at 10 mg/kg, time 2 h, 10 mg/kg): 236.8 ng/mL and 224.0 ng/mL
Plasma concentration, individual animal ([1]; female Sprague-Dawley rats, 24-hour intravenous infusion at 10 mg/kg, time 4 h, 10 mg/kg): 514.4 ng/mL and 318.2 ng/mL
Plasma concentration, individual animal ([1]; female Sprague-Dawley rats, 24-hour intravenous infusion at 10 mg/kg, time 6 h, 10 mg/kg): 517.6 ng/mL and 464.6 ng/mL
Plasma concentration, individual animal ([1]; female Sprague-Dawley rats, 24-hour intravenous infusion at 10 mg/kg, time 8 h, 10 mg/kg): 443.8 ng/mL and 454.7 ng/mL
Plasma concentration, individual animal ([1]; female Sprague-Dawley rats, 24-hour intravenous infusion at 10 mg/kg, time 24 h, 10 mg/kg): 955.6 ng/mL and 1151.8 ng/mL
Plasma concentration, individual animal ([1]; female Sprague-Dawley rats, 24-hour intravenous infusion at 30 mg/kg, time 1 h, 30 mg/kg): 615.7 ng/mL and 704.9 ng/mL
Plasma concentration, individual animal ([1]; female Sprague-Dawley rats, 24-hour intravenous infusion at 30 mg/kg, time 2 h, 30 mg/kg): 1031.6 ng/mL and 1309.5 ng/mL
Plasma concentration, individual animal ([1]; female Sprague-Dawley rats, 24-hour intravenous infusion at 30 mg/kg, time 4 h, 30 mg/kg): 1396.0 ng/mL and 1936.4 ng/mL
Plasma concentration, individual animal ([1]; female Sprague-Dawley rats, 24-hour intravenous infusion at 30 mg/kg, time 6 h, 30 mg/kg): 1903.2 ng/mL and 1640.0 ng/mL
Plasma concentration, individual animal ([1]; female Sprague-Dawley rats, 24-hour intravenous infusion at 30 mg/kg, time 8 h, 30 mg/kg): 1362.1 ng/mL and 2091.5 ng/mL
Plasma concentration, individual animal ([1]; female Sprague-Dawley rats, 24-hour intravenous infusion at 30 mg/kg, time 24 h, 30 mg/kg): 3772.1 ng/mL and 1746.0 ng/mL and 1995.6 ng/mL
Plasma concentration, individual animal ([1]; female Sprague-Dawley rats, 24-hour intravenous infusion at 100 mg/kg, time 1 h, 100 mg/kg): 1906.4 ng/mL and 1597.2 ng/mL
Plasma concentration, individual animal ([1]; female Sprague-Dawley rats, 24-hour intravenous infusion at 100 mg/kg, time 2 h, 100 mg/kg): 176.5 ng/mL and 4269.2 ng/mL and 2496.4 ng/mL
Plasma concentration, individual animal ([1]; female Sprague-Dawley rats, 24-hour intravenous infusion at 100 mg/kg, time 4 h, 100 mg/kg): 5749.5 ng/mL and 5331.1 ng/mL
Plasma concentration, individual animal ([1]; female Sprague-Dawley rats, 24-hour intravenous infusion at 100 mg/kg, time 6 h, 100 mg/kg): 4434.5 ng/mL and 4923.9 ng/mL
Plasma concentration, individual animal ([1]; female Sprague-Dawley rats, 24-hour intravenous infusion at 100 mg/kg, time 8 h, 100 mg/kg): 5510.0 ng/mL and 5078.2 ng/mL
Plasma concentration, individual animal ([1]; female Sprague-Dawley rats, 24-hour intravenous infusion at 100 mg/kg, time 24 h, 100 mg/kg): 10396.6 ng/mL and 8457.1 ng/mL
Plasma concentration, individual animal ([1]; male Sprague-Dawley rats, 24-hour intravenous infusion at 10 mg/kg, time 2 h, 10 mg/kg): 232.9 ng/mL and 267.6 ng/mL
Plasma concentration, individual animal ([1]; male Sprague-Dawley rats, 24-hour intravenous infusion at 10 mg/kg, time 4 h, 10 mg/kg): 368.8 ng/mL and 227.7 ng/mL and 537.2 ng/mL
Plasma concentration, individual animal ([1]; male Sprague-Dawley rats, 24-hour intravenous infusion at 10 mg/kg, time 6 h, 10 mg/kg): 319.8 ng/mL and 422.8 ng/mL
Plasma concentration, individual animal ([1]; male Sprague-Dawley rats, 24-hour intravenous infusion at 10 mg/kg, time 8 h, 10 mg/kg): 355.4 ng/mL and 464.0 ng/mL
Plasma concentration, individual animal ([1]; male Sprague-Dawley rats, 24-hour intravenous infusion at 10 mg/kg, time 24 h, 10 mg/kg): 931.8 ng/mL and 453.8 ng/mL and 722.7 ng/mL
Plasma concentration, individual animal ([1]; male Sprague-Dawley rats, 24-hour intravenous infusion at 30 mg/kg, time 1 h, 30 mg/kg): 953.9 ng/mL and 1465.9 ng/mL and 631.3 ng/mL
Plasma concentration, individual animal ([1]; male Sprague-Dawley rats, 24-hour intravenous infusion at 30 mg/kg, time 2 h, 30 mg/kg): 918.9 ng/mL and 1589.9 ng/mL and 777.4 ng/mL
Plasma concentration, individual animal ([1]; male Sprague-Dawley rats, 24-hour intravenous infusion at 30 mg/kg, time 4 h, 30 mg/kg): 1178.3 ng/mL and 1318.0 ng/mL
Plasma concentration, individual animal ([1]; male Sprague-Dawley rats, 24-hour intravenous infusion at 30 mg/kg, time 6 h, 30 mg/kg): 1593.6 ng/mL and 1640.0 ng/mL
Plasma concentration, individual animal ([1]; male Sprague-Dawley rats, 24-hour intravenous infusion at 30 mg/kg, time 8 h, 30 mg/kg): 1580.3 ng/mL and 1471.5 ng/mL
Plasma concentration, individual animal ([1]; male Sprague-Dawley rats, 24-hour intravenous infusion at 30 mg/kg, time 24 h, 30 mg/kg): 3331.2 ng/mL and 2290.3 ng/mL
Plasma concentration, individual animal ([1]; male Sprague-Dawley rats, 24-hour intravenous infusion at 100 mg/kg, time 1 h, 100 mg/kg): 2774.3 ng/mL and 2044.9 ng/mL
Plasma concentration, individual animal ([1]; male Sprague-Dawley rats, 24-hour intravenous infusion at 100 mg/kg, time 2 h, 100 mg/kg): 2536.6 ng/mL and 4129.6 ng/mL and 1612.6 ng/mL
Plasma concentration, individual animal ([1]; male Sprague-Dawley rats, 24-hour intravenous infusion at 100 mg/kg, time 4 h, 100 mg/kg): 3882.2 ng/mL and 4393.3 ng/mL
Plasma concentration, individual animal ([1]; male Sprague-Dawley rats, 24-hour intravenous infusion at 100 mg/kg, time 6 h, 100 mg/kg): 6326.5 ng/mL and 9474.0 ng/mL and 4167.8 ng/mL
Plasma concentration, individual animal ([1]; male Sprague-Dawley rats, 24-hour intravenous infusion at 100 mg/kg, time 8 h, 100 mg/kg): 5471.2 ng/mL and 5325.5 ng/mL
Plasma concentration, individual animal ([1]; male Sprague-Dawley rats, 24-hour intravenous infusion at 100 mg/kg, time 24 h, 100 mg/kg): 8719.6 ng/mL and 6859.8 ng/mL
Amount in urine [2, 3]: 1.10 µg and 0.0002 µg and 0.0004 µg
Urine Conc. [2, 3]: 1.10 µg/mL and 0.02 µg/mL and 0.01 µg/mL
Amount in urine [2, 4]: 2.94 µg and 1.49 µg and 8.54 µg and 5.44 µg and 7.26 µg
Urine Conc. [2, 4]: 14.7 µg/mL and 14.9 µg/mL and 5.69 µg/mL and 5.44 µg/mL and 18.1 µg/mL
Amount in urine [2, 5]: 5.14 µg and 9.24 µg and 2.78 µg and 6.21 µg and 6.50 µg
Urine Conc. [2, 5]: 25.7 µg/mL and 18.5 µg/mL and 13.9 µg/mL and 20.7 µg/mL and 13.0 µg/mL
Amount in urine [2, 6]: 16.8 µg and 2.18 µg and 6.75 µg and 3.31 µg and 4.53 µg
Urine Conc. [2, 6]: 11.2 µg/mL and 21.8 µg/mL and 13.5 µg/mL and 16.5 µg/mL and 9.06 µg/mL
Amount in urine [2, 7]: 1.29 µg and 4.95 µg and 6.21 µg and 3.18 µg and 5.92 µg and 11.1 µg
Urine Conc. [2, 7]: 12.9 µg/mL and 4.95 µg/mL and 20.7 µg/mL and 31.8 µg/mL and 11.8 µg/mL and 11.1 µg/mL
Amount in urine [2, 8]: 0.003 µg and 0.01 µg and 0.0005 µg and 0.004 µg and 0.001 µg
Urine Conc. [2, 8]: 0.01 μg/mL (2×) and 0.10 μg/mL and 0.02 μg/mL and 0.05 μg/mL
Amount in urine ([2]; 72-hour IV infusion 10 mg/kg/day, male rats, interval 0-4 h): 1.75 µg and 3.96 µg
Amount in urine [2, 9]: 7.88 µg and 9.98 µg
Urine Conc. [2, 9]: 33.3 µg/mL
Amount in urine [2, 10]: 9.72 µg and 20.9 µg
Urine Conc. [2, 10]: 20.9 µg/mL
Amount in urine [2, 11]: 34.1 µg and 9.88 µg
Urine Conc. [2, 11]: 24.7 µg/mL
Amount in urine [2, 12]: 20.9 µg and 16.1 µg
Urine Conc. [2, 12]: 16.1 µg/mL
Amount in urine ([2]; 72-hour IV infusion 10 mg/kg/day, male rats, interval 92-96 h): 0.01 µg
Amount in urine [2, 13]: 1.98 µg and 2.11 µg and 2.15 µg
Urine Conc. [2, 13]: 4.94 µg/mL and 5.26 µg/mL and 5.36 µg/mL
Amount in urine [2, 14]: 10.0 µg and 10.8 µg and 10.6 µg and 33.8 µg and 15.1 µg
Urine Conc. [2, 14]: 33.4 µg/mL and 21.7 µg/mL and 52.8 µg/mL and 22.6 µg/mL and 30.2 µg/mL
